PubChem BioAssay AID1259254 – NCATS | 2017

- Aim: 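Gene knock-downs that lead to re-replication, shown by excess G2 DNA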 (primary screen)
- Cell system: human HCT116 colorectal cancer cells
- Reagent: single siRNA against human genes
- Time to read-out: 3 days
- Detection: 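Imaged Hoechst DNA stain sorts each cell into a cycle phase by DNA amount; per plate, G2 fraction set to 0% for non-targeting and 100% for GMNN siRNA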
- Reading the numbers: G2 robust z-score and G2 cells, % of GMNN control: higher = more G2 cells, more excess DNA replication; raw share of cells in G2: higher = larger share of cells with G2 DNA content
- Active means: 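Active siRNAs have a G2 robust z of 5 or more median absolute deviations over the median, which in these data means about 38% or higher of GMNN control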
This is a random part of about 59,000 reagents. About 1,550 of them (2.6%) count as active. 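G2 share is only a proxy for re-replication; each gene was hit by three separate siRNAs, and active genes were retested.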 Raw values are not corrected between plates. A number with no mark means an inactive call. Reagents against one gene are numbered here. Not stated in the record: the amount of reagent.

no.	gene	reagent	G2 robust z-score	G2 cells, % of GMNN control	raw share of cells in G2 (%)
1	SAMD4A (sterile alpha motif domain containing 4A)	1	-0.612	-1.34	4.46
2	SAMD4A (sterile alpha motif domain containing 4A)	2	-0.263	1.12	4.6
3	SAMD4A (sterile alpha motif domain containing 4A)	3	0.18	4.24	4.76
4	RHAG (Rh associated glycoprotein)	1	0.566	6.95	7.37
5	RHAG (Rh associated glycoprotein)	2	-0.24	1.28	5.17
6	RHAG (Rh associated glycoprotein)	3	1.27	11.9	8.1
7	OR1Q1 (olfactory receptor family 1 subfamily Q member 1)	1	6.51 (active)	48.8	21.1
8	OR1Q1 (olfactory receptor family 1 subfamily Q member 1)	2	-1.11	-4.86	1.33
9	OR1Q1 (olfactory receptor family 1 subfamily Q member 1)	3	-0.106	2.22	3.46
10	NUMB (NUMB endocytic adaptor protein)	1	1.68	14.8	10.5
11	NUMB (NUMB endocytic adaptor protein)	2	-0.0568	2.57	5.7
12	NUMB (NUMB endocytic adaptor protein)	3	0.515	6.59	7.07
13	CYB5A (cytochrome b5 type A)	1	3.63	28.5	15.4
14	CYB5A (cytochrome b5 type A)	2	0.833	8.83	7.14
15	CYB5A (cytochrome b5 type A)	3	-0.606	-1.3	4.5
16	TMC8 (transmembrane channel like 8)	1	-0.169	1.78	3.69
17	TMC8 (transmembrane channel like 8)	2	-0.827	-2.85	2.87
18	TMC8 (transmembrane channel like 8)	3	0.186	4.27	4.23
19	AHNAK (AHNAK nucleoprotein)	1	2.35	19.5	13.1
20	AHNAK (AHNAK nucleoprotein)	2	1.5	13.5	10.7
21	AHNAK (AHNAK nucleoprotein)	3	0.765	8.35	4.9
22	FAM81B (family with sequence similarity 81 member B)	1	0.601	7.2	6.18
23	FAM81B (family with sequence similarity 81 member B)	2	0.42	5.92	4.94
24	FAM81B (family with sequence similarity 81 member B)	3	0.0357	3.22	3.78
25	UBE2R2 (ubiquitin conjugating enzyme E2 R2)	1	3.01	24.1	17
26	UBE2R2 (ubiquitin conjugating enzyme E2 R2)	2	-0.281	0.994	4.8
27	UBE2R2 (ubiquitin conjugating enzyme E2 R2)	3	-1.02	-4.2	2.58
28	OR52K2 (olfactory receptor family 52 subfamily K member 2)	1	-0.00853	2.91	5.26
29	OR52K2 (olfactory receptor family 52 subfamily K member 2)	2	-0.26	1.14	3.67
30	OR52K2 (olfactory receptor family 52 subfamily K member 2)	3	-0.778	-2.5	1.09
31	HEXD (hexosaminidase D)	1	-0.599	-1.25	2.89
32	HEXD (hexosaminidase D)	2	-0.744	-2.27	2.81
33	HEXD (hexosaminidase D)	3	-0.471	-0.346	2.91
34	PGK2 (phosphoglycerate kinase 2)	1	-1.04	-4.34	4.18
35	PGK2 (phosphoglycerate kinase 2)	2	-0.582	-1.13	5.03
36	PGK2 (phosphoglycerate kinase 2)	3	0.462	6.22	6.22
37	CAMK1G (calcium/calmodulin dependent protein kinase IG)	1	1.41	12.9	7.8
38	CAMK1G (calcium/calmodulin dependent protein kinase IG)	2	-1.33	-6.37	3.61
39	CAMK1G (calcium/calmodulin dependent protein kinase IG)	3	0.706	7.93	8.08
40	SCYL3 (SCY1 like pseudokinase 3)	1	0.399	5.78	7.39
41	SCYL3 (SCY1 like pseudokinase 3)	2	3.77	29.5	15.9
42	SCYL3 (SCY1 like pseudokinase 3)	3	2.04	17.3	9.22
43	LINC02872 (long independently transcribed non-coding RNA 2872)	1	-0.714	-2.05	3.06
44	LINC02872 (long independently transcribed non-coding RNA 2872)	2	0.188	4.29	5.22
45	LINC02872 (long independently transcribed non-coding RNA 2872)	3	-0.597	-1.23	4.28
46	HMX1 (H6 family homeobox 1)	1	-1.03	-4.29	4.05
47	HMX1 (H6 family homeobox 1)	2	1.2	11.4	9.2
48	HMX1 (H6 family homeobox 1)	3	2.3	19.1	11.2
49	PAGR1 (PAXIP1 associated glutamate rich protein 1)	1	-1.1	-4.75	2.51
50	PAGR1 (PAXIP1 associated glutamate rich protein 1)	2	0.703	7.91	8.15
51	PAGR1 (PAXIP1 associated glutamate rich protein 1)	3	0.0944	3.63	3.66
52	TNRC18 (trinucleotide repeat containing 18)	1	-0.935	-3.61	1.31
53	TNRC18 (trinucleotide repeat containing 18)	2	-1	-4.07	2.76
54	TNRC18 (trinucleotide repeat containing 18)	3	-0.703	-1.98	2.87
55	ADARB2 (adenosine deaminase RNA specific B2 (inactive))	1	-0.19	1.63	4.6
56	ADARB2 (adenosine deaminase RNA specific B2 (inactive))	2	1.31	12.2	9.4
57	ADARB2 (adenosine deaminase RNA specific B2 (inactive))	3	0.604	7.22	7.18
58	NLRC3 (NLR family CARD domain containing 3)	1	-0.661	-1.68	4.09
59	NLRC3 (NLR family CARD domain containing 3)	2	-0.966	-3.83	3.09
60	NLRC3 (NLR family CARD domain containing 3)	3	-0.607	-1.31	5.33
61	LOC643496 (retired record)	1	-0.25	1.21	3.5
62	LOC643496 (retired record)	2	-0.716	-2.07	2.85
63	LOC643496 (retired record)	3	-0.0342	2.73	4.25
64	SLC9A9	1	-0.117	2.14	5.8
65	SLC9A9	2	-0.204	1.53	6.57
66	SLC9A9	3	2.48	20.4	11.7
67	MYOZ2 (myozenin 2)	1	-0.88	-3.22	3.05
68	MYOZ2 (myozenin 2)	2	-0.388	0.239	3.89
69	MYOZ2 (myozenin 2)	3	-0.519	-0.686	5.64
70	MTBP (MDM2 binding protein)	1	3.32	26.3	11.6
71	MTBP (MDM2 binding protein)	2	0.659	7.6	6.76
72	MTBP (MDM2 binding protein)	3	1.19	11.4	8.85
73	AGPAT5 (1-acylglycerol-3-phosphate O-acyltransferase 5)	1	0.654	7.57	7.49
74	AGPAT5 (1-acylglycerol-3-phosphate O-acyltransferase 5)	2	-0.386	0.254	4.53
75	AGPAT5 (1-acylglycerol-3-phosphate O-acyltransferase 5)	3	2.17	18.2	14.4
76	R3HCC1L (R3H domain and coiled-coil containing 1 like)	1	-0.527	-0.744	3.57
77	R3HCC1L (R3H domain and coiled-coil containing 1 like)	2	0.0233	3.13	5.73
78	R3HCC1L (R3H domain and coiled-coil containing 1 like)	3	-0.704	-1.99	2.63
79	ERLEC1 (endoplasmic reticulum lectin 1)	1	-0.787	-2.57	2.87
80	ERLEC1 (endoplasmic reticulum lectin 1)	2	-0.46	-0.268	4.45
81	ERLEC1 (endoplasmic reticulum lectin 1)	3	-0.192	1.62	3.76
82	TUFM (Tu translation elongation factor, mitochondrial)	1	1.24	11.7	8.6
83	TUFM (Tu translation elongation factor, mitochondrial)	2	-1.17	-5.25	3.38
84	TUFM (Tu translation elongation factor, mitochondrial)	3	0.36	5.5	6.29
85	ATPSCKMT (ATP synthase c subunit lysine N-methyltransferase)	1	0.0339	3.21	3.74
86	ATPSCKMT (ATP synthase c subunit lysine N-methyltransferase)	2	-0.901	-3.37	2.9
87	ATPSCKMT (ATP synthase c subunit lysine N-methyltransferase)	3	1.13	10.9	6.56

Entries above marked active (1):
gene	reagent	G2 robust z-score	G2 cells, % of GMNN control	raw share of cells in G2 (%)
OR1Q1 (olfactory receptor family 1 subfamily Q member 1)	1	6.51 (active)	48.8	21.1
